Test results from patent publication US9359409B2, “Antimicrobial peptides, compositions comprising the same and uses thereof” (priority 2012, dated 2016).
Not every detail of the peptide structures is certain; ends, links or a residue may be inferred. Ends that are not written are not given here.

Test system: E. coli
Assay type: cell-based
Details: non-amidated peptides, agar dilution
Protocol: In vitro sensitivity assay of aerobically growing bacteria, using the disc diffusion method was performed according to the standards in the M2 document of the CLSI (Clinical and Laboratory Standards Institute: Performance Standards for Antimicrobial Disk Susceptibility Tests.) using the non-amidated peptides
In brief, intermediate solutions (10×) of the antimicrobial non-amidated peptides were prepared by serial dilutions 1:2, 1:4 and 1:8 by two-fold dilutions. Then, one part of the solution of the antimicrobial peptide 10× was added to nine parts of melted bacteriological agar. The antibiotic solution was added for each dilution, in the melted agar and cooled to 45-50° C. in a water bath. Then, the agar-antibiotic mixture was placed in a Petri dish until a 3-4 mm depth was reached. The inoculum is prepared with a turbidity of 0.5 in the McFarland scale (approximately 1-2 10^8 CFU/ml). The final inoculum required for the agar dilution test is 10^4 colony forming units (CFU) per “spot” having 5-8 mm in diameter. The inoculated plates must be incubated upside down at 35° C. for a period of 16-20 hs. MIC was recorded as the value of the lower dilution completely inhibiting bacterial development, without considering the development of a single colony or a slight film caused by the inoculum deposit. […]

Substance | activity at the concentrations studied (in words)
GLLKKWLKKWKEFKRIVGY-NH2 [peptide 2, GLLKKWLKKWKEFKRIVGY] | has activity
RIVQRIKKWLLKWKKLGY-NH2 [peptide 5, RIVQRIKKWLLKWKKLGY] | has activity
